Source: patent US10106762B2, “Treating a textile garment with a hydrophobic dye solution” (Henkel IP & Holding GmbH, priority 2004, dated 2018)

What was measured:
[1] = Example 2 repeated with knitted nylon, reflectance deltaE; conditions: 200 ppb dye, 30 minutes, UV excluded
[2] = Example 2: dye deposition on knitted polyester at 200 ppb in wash solution, reflectance deltaE and Ganz whiteness; conditions: 200 ppb dye; for Ganz whiteness: 1.8 g/L washing powder, accurate to +/-5 units, control 81; for Ganz whiteness / ΔE polyester: 30 minutes; for ΔE polyester: knitted polyester, UV excluded, compared to fabric washed without dye
[3] = Example 1: dye deposition on woven polyester in wash solution, colour by reflectance spectrometer; conditions: 5.7-5.8 ppm dye in 1.8 g/L base washing powder, 1 g woven polyester, shaken 30 minutes, rinsed, dried; compared to polyester washed without dye

Molecule	ΔE nylon [1]	Ganz whiteness [2]	ΔE polyester [2]	CT (Colour Transferred from the wash solution to the polyester, CT = deltaE/OD) [2]	deltaE [3]
COc1cc(/N=N/c2c(Br)cc([N+](=O)[O-])cc2[N+](=O)[O-])c(NC(C)=O)cc1N(CCOC(C)=O)CCOC(C)=O [Disperse Blue 79:1]	1.7	113	4.7	96	–
CCN(CC)c1ccc(/N=N/c2c(C#N)cc([N+](=O)[O-])cc2C#N)c(NC(C)=O)c1 [Disperse Blue 165]	5.0	129	7.5	107	–
CN=C1C=CC(=C(c2ccc(N(C)C)cc2)c2ccc(N(C)C)cc2)C=C1 [Solvent Violet 8, Solvent Violet 8 (Methyl Violet B Base)]	0.6	89	1.1	3.5	–
CCN(CCO)c1ccc(/N=N/c2ncc([N+](=O)[O-])s2)c(C)c1 [disperse blue 106]	–	–	–	–	4.8
CCN(CCO)c1ccc(/N=N/c2ccc([N+](=O)[O-])cc2)cc1 [disperse red 1]	11.8	71	3.4	150	10.9
CC1(C)Nc2cccc3c(/N=N/c4ccc(/N=N/c5ccccc5)c5ccccc45)ccc(c23)N1 [solvent black 3]	0.6	74	1.5	6.4	5.0
Cc1ccccc1/N=N/c1ccc(/N=N/c2c(O)ccc3ccccc23)c(C)c1 [solvent red 24]	–	–	–	–	10.6
Disperse Blue 367	1.1	91	1.4	250	–
Solvent blue 43	0.4	88	0.9	2.1	–
